From publication PMC7893051 come the findings set out here.

Data set [1] concerns the target HA-EBB1 (EARLY BUD-BREAK 1) (UniProt F8QPW1). Kind of data set: EMSA. The following applies: poly(dI:dC), BSA, SVL EMSA: 10 uL protoplast extract, EMSA buffer (composition not given), protein in a lysate after overexpression, protein details: HA, label: biotin. Background: A gel shift assay detects complexes by their altered migration in electrophoresis.
Data set [2] concerns the target HA-EBB3 (EARLY BUD-BREAK 3) (UniProt B9I411). Nature of the data set: EMSA. The settings on record: poly(dI:dC), BSA, SVL EMSA: 10 uL protoplast extract, EMSA buffer (composition not given), protein in a lysate after overexpression, protein details: HA, label: biotin.

Where cells or extracts were used, other partners may take part. Negatives hold for the conditions tested. For at least one entry, the source does not settle the construct or the ends of the probe.

“TTAGCAAAATGACGACTGTTTTACTCC (double strand) [SVL Prom F1m2]”: the binding result in data set [1] is “no binding”. On the same count and under the same terms, in the case of “TTAGCAAAATGCAGCATGTTTTACTCC (double strand) [SVL Prom F1m1]” it was “no binding”.

With “TTAGCAAAATGCCGCCTGTTTTACTCC (double strand) [SVL Prom F1 (27 bp, GCC-box)]”, the binding result in data set [1] is reported as “binds”; in data set [2], “no binding”. For “TTAGCAAAATTTCTTCTGTTTTACTCC (double strand) [SVL Prom F1m3]”, the binding result in data set [1] is recorded as “no binding”.
